# From the supplement of paper PMC8047044
# Where “and” joins values, the source holds several entries; their conditions need not be identical. Equal values may be shown once. The list shows a part of the results. Single values are uncertain, as repeats are few or missing.
# Test system: Neuro-2a
# Experiment: neurite formation score, plate-normalized to DMSO control mean 5.04 (score (0-8 scale)); higher = more or longer neurites
# Conditions: 10 µM
row,SMILES,neurite formation score
1,CN(C)C(=O)c1cc2cnc(Nc3ccc(N4CCNCC4)cn3)nc2n1C1CCCC1,6.09
2,COc1cc(-c2cc(-c3ccc(N4CCNCC4)cc3)cnc2C)cc(OC)c1OC,3.42
3,C=CCc1ccc(O)c(-c2ccc(O)c(CC=C)c2)c1 [Honokiol],2.42
4,C[C@@H](Oc1cc(-c2cnn(C3CCNCC3)c2)cnc1N)c1c(Cl)ccc(F)c1Cl [(R)-Crizotinib],-0.124
5,CN1CCN(c2ccc(C(=O)Nc3n[nH]c4ccc(Cc5cc(F)cc(F)c5)cc34)c(NC3CCOCC3)c2)CC1 [Entrectinib],0.189
6,O=C(Nc1ccc(OC(F)(F)F)cc1)c1sccc1NCc1ccnc2ccccc12,0.543
7,COc1cc(Nc2nc3ccccc3nc2NS(=O)(=O)c2ccc(NC(=O)c3ccc(C)c(OC)c3)cc2)cc(OC)c1,3.19
8,COc1cc2ncnc(Nc3cccc(Cl)c3F)c2cc1OC(=O)N1CCN(C)C[C@H]1C,3.86
9,O=[N+]([O-])c1ccc(-c2nc(-c3ccc(F)cc3)c(-c3ccncc3)[nH]2)cc1,3.43
10,CS(=O)(=O)N1CCN(Cc2cc3nc(-c4cccc5[nH]ncc45)nc(N4CCOCC4)c3s2)CC1 [GDC-0941 dimethanesulfonate],0.424
11,COc1cc(C(=O)NC2CCN(C)CC2)c(F)cc1Nc1ncc2c(n1)N(C1CCCC1)CC(F)(F)C(=O)N2C,4.52
12,CCc1ccc(/C=C2/SC(=S)NC2=O)cc1,4.88
13,"O=c1cc(-c2ccccc2)oc2c(O)c(O)ccc12 [7,8-Dihydroxyflavone]",5.19
14,N[C@@H]1CCCN(c2c(/C=C3\SC(=O)NC3=O)cccc2-c2ccccc2)C1,4.08
15,Cn1c(Nc2ccc(C(F)(F)F)cc2)nc2cc(Oc3ccnc(-c4ncc(C(F)(F)F)[nH]4)c3)ccc21,4.85
16,Cc1cc(Nc2cc(CN3CCOCC3)c3nc(C)c(Cc4ccc(Cl)cc4F)n3n2)n[nH]1,0.077
17,C=CC(=O)N1CCC[C@@H](n2nc(-c3ccc(Oc4ccccc4)cc3)c3c(N)ncnc32)C1,1.21
18,CS(=O)(=O)CCNCc1ccc(-c2ccc3ncnc(Nc4ccc(OCc5cccc(F)c5)c(Cl)c4)c3c2)o1 [Lapatinib],3.52
19,Cn1cnc(-c2cc3nccc(Oc4ccc(NC(=S)NC(=O)Cc5ccccc5)cc4F)c3s2)c1,1.08
20,CC(=O)c1c(C)c2cnc(Nc3ccc(N4CCNCC4)cn3)nc2n(C2CCCC2)c1=O,3.52 and 4.19

# A few values from the entries so far:
# Entry for O=c1cc(-c2ccccc2)oc2c(O)c(O)ccc12 [7,8-Dihydroxyflavone] under neurite formation score: 5.19
# Entry for O=C(Nc1ccc(OC(F)(F)F)cc1)c1sccc1NCc1ccnc2ccccc12 under neurite formation score: 0.543

# Next part

row,SMILES,neurite formation score
1,Cn1cc(-c2ccc3nnc(C(F)(F)c4ccc5ncccc5c4)n3n2)cn1,4.08
2,NC(=O)c1ccc(N(C(N)=O)c2c(F)cccc2F)nc1-c1ccc(F)cc1F,4.43
3,COc1ccc2c(OCc3nnc4ccc(-c5ccccc5)nn34)ccnc2c1,4.86
4,CS(=O)(=O)N1CCN(Cc2cc3nc(-c4cccc5[nH]ncc45)nc(N4CCOCC4)c3s2)CC1,4.19
5,Cc1[nH]c(/C=C2\C(=O)Nc3ccc(S(=O)(=O)Cc4c(Cl)cccc4Cl)cc32)c(C)c1C(=O)N1CCC[C@@H]1CN1CCCC1,1.54
6,C=CC(=O)Nc1cccc(Nc2nc(Nc3ccc(N4CCN(C(C)=O)CC4)cc3OC)ncc2C(F)(F)F)c1,0.543
7,Nc1nccc(Oc2ccc(NC(=O)c3c[nH]cc(-c4ccc(F)cc4)c3=O)cc2F)c1Cl,1.09
8,N#Cc1c(NC(=O)c2cccc3ccccc23)sc2c1CCCC2,1.19
9,N#CC(=C(/N)Sc1ccccc1N)/C(C#N)=C(\N)Sc1ccccc1N,4.21
10,CC(C)NC[C@@H](C(=O)N1CCN(c2ncnc3c2[C@H](C)C[C@H]3O)CC1)c1ccc(Cl)cc1,5.54
11,Cc1cc2c(F)c(Oc3ncnn4cc(OC[C@@H](C)O)c(C)c34)ccc2[nH]1,4.21
12,CCOc1cc(N2CCC(O)CC2)ccc1Nc1ncc2c(n1)N(C)c1ccccc1C(=O)N2C,4.08
13,CCCS(=O)(=O)Nc1ccc(F)c(C(=O)c2c[nH]c3ncc(Cl)cc23)c1F,4.88
14,C=CC(=O)Nc1cccc(Oc2nc(Nc3ccc(N4CCN(C)CC4)cc3)ncc2Cl)c1,1.09
15,COc1nccc(-c2c(-c3ccc(F)cc3)ncn2C2CCC(O)CC2)n1 (centres undefined),4.74
16,Cc1cnc(Nc2ccc(OCCN3CCCC3)cc2)nc1Nc1cccc(S(=O)(=O)NC(C)(C)C)c1,0.744
17,COc1cc(Nc2ncc(F)c(Nc3ccc4c(n3)NC(=O)C(C)(C)O4)n2)cc(OC)c1OC,6.43
18,Cc1nc(Nc2n[nH]c3c2CN(C(=O)N[C@H](CN(C)C)c2ccccc2)C3(C)C)c2sccc2n1,-0.256
19,Nc1ncnc2c1c(-c1cnc3[nH]ccc3c1)nn2C1CCCC1,3.86
